Laboratory results reported in article doi:10.1101/2022.05.16.492168.
These are yes or no findings as the source states them, for the method shown. Binding seen in cells or lysates may run through a third protein. Here binding means that the protein was enriched with, or labelled near, the bait; the list need not be complete. For part of these data: Sequences can lack the tags named with a protein. Each block holds one binder with its values, some of them ahead of it.

The chains behind the UniProt entries cited, without tags or fusion partners. Where a name states a change or a piece, a line headed by the entry shows the natural chain unless it says otherwise.
UniProt Q8L8T7: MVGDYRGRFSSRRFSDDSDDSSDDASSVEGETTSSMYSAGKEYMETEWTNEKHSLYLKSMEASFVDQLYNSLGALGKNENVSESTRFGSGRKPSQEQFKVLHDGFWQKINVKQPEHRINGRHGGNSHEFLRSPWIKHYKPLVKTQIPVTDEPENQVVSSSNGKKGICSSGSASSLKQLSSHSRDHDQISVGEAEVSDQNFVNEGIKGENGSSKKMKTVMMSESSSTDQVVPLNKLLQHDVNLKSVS

Assays:
Assay in all cases: affinity purification with mass spectrometry
[1] = target: YFP-COR27 (COLD REGULATED GENE 27) (Arabidopsis thaliana), Q8L8T7; settings: remark: other sources report otherwise
[2] = target: T1, GFP-COR28 (COLD REGULATED GENE 28) (Arabidopsis thaliana) (UniProt Q8L983)
T1 sequence: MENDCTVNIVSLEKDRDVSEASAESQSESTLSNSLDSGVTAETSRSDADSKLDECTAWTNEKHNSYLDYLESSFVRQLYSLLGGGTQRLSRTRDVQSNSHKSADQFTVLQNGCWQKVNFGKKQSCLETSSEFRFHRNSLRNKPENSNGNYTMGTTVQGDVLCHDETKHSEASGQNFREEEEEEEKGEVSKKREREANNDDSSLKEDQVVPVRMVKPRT

[3] = target: T2, RVE8-HFC (REVEILLE 8 with 3x-FLAG-6x-His C-terminal tag) (Arabidopsis thaliana) (UniProt Q8RWU3)
T2 sequence: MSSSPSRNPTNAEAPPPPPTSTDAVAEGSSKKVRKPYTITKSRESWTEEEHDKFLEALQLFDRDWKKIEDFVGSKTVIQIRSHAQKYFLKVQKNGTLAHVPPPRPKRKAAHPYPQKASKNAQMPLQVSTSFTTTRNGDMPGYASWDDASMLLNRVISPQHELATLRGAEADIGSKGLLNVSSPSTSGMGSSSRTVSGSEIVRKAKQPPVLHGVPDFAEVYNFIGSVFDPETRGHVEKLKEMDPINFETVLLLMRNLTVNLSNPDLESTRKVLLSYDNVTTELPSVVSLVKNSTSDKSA

[4] = target: YFP-COR27 (COLD REGULATED GENE 27) (Arabidopsis thaliana) (UniProt Q8L8T7)

B1: SPA4, Q94BM7 1-794 (protein)
chain: MKGSSESSSRGLNNTSGVSEFCTDGSKSLSHIDYVRSLLGSHKEANLGGLDDDSIVRALECEDVSLRQWLDNPDRSVDAFECFHVFRQIVEIVNAAHSQGIVVHNVRPSCFVMSSFNNVSFIESASCSDSGSDEDATTKSREIGSSRQEEILSERRSKQQEEVKKQPFPMKQILAMEMSWYTSHEEDNGSLCNCASDIYRLGVLLFELFCPVSSREEKSRTMSSLRHRVLPPQILLNWPKEASFCLWLLHPEPSCRPSMSELLQSEFINEPRENLEEREAAMELRDRIEEQELLLEFLFLIQQRKQEAADKLQDTISLLSSDIDQVVKRQLVLQQKGRDVRSFLASRKRIRQGAETTAAEEENDDNSIDEESKLDDTLESTLLESSRLMRNLKKLESVYFATRYRQIKAATAAEKPLARYYSALSCNGRSSEKSSMSQPSKDPINDSRQGGWIDPFLEGLCKYLSFSKLRVKADLKQGDLLNSSNLVCAIGFDRDGEFFATAGVNKKIKIFECESIIKDGRDIHYPVVELASRSKLSGICWNSYIKSQVASSNFEGVVQVWDVARNQLVTEMKEHEKRVWSIDYSSADPTLLASGSDDGSVKLWSINQGVSIGTIKTKANICCVQFPSETGRSLAFGSADHKVYYYDLRNPKLPLCTMIGHHKTVSYVRFVDSSTLVSSSTDNTLKLWDLSMSISGINETPLHSFMGHTNVKNFVGLSVSDGYIATGSETNEVFVYHKAFPMPVLSYKFKTIDPVSELEVDDASQFISSVCWRGQSSTLVAANSTGNIKILEMV
- binding [1]: binds

B2: SUPPRESSOR OF PHYA-105 (SPA1) (protein, UniProt Q9SYX2 1-1029)
chain: MPVMERVAEETVATNNIQLKARVDDVPCNKLDARHNDMVIQSETANSDCPGSSAHRNVDLTKPPPPEEAAGAKLSVEELTLGNYRIVQGSNNTNVDSPRAGKFEHLYRLARGSAFRAGDGDLDSQPRDMDQMLSRIRQQLAGAPSERQNLKPFMSRRSDQNLEAFSERLRAAGENSIMNAPALISEGVQMKTPVSSSNFSQLLLKRAMKGKGVVGKNQETPPEFVSDQDLGSKEKKLDISKSPTPHDVLPLKSSPKGNGMVSHGDGNHSKSSIGISLREFLRSSYAKREKRHGLCLFRQLVELVDSAHSKRLFLLDLRPSLFTLVPSKKLRYIGNFGKNDLESDVDEDLNRRRPVVEESSSGGRDSKKRKMDLHLNSPGNQLQATSTGRPFKRKSPVIDLNMVDARNPDSCELQQQDYIKNLSVSSVSRKQSMSTWLEEQWYTCPEEINGEDIGEKSNIYALGVLLFELLCHCESGEMHAAMMADLRHRILPPTFLSKYPKEAGFCLWLLHPEPSSRPSARDILKSELICEDDSVKSTAAAEEISELLLHFLSSLEVQKKKKASKLLQDIQTLEDDIKEAERRYSSNVSLVRSHGAIEKRVQSSPLDEHCTTSSALFVPTANTDRLMSNIRQLEDAYFFMRSQINLSSSAATARSDKTLKDRDRCSENQNENQDMSTKGKSSDQLEVFFEGLCKFARYSKFETCGTIRSGDLLNSASVVCSLSFDPDEEHIAAAGISKKIKIFDFNAFMNESVGVHYPLVEMVNKSKLSCVCWNSYIKNYLASTDYDGVVQIWDAGTGQGFSQYTEHQKRAWSVDFSPSDPTKFVSGSDDCSVKLWSINEKRSLGTIWSPANVCCVQFSSYSNHLLAFGSADYKVYCYDLRYVKTPWCTLAGHEKAVSYVKFMDSETIVSASTDNSLKLWNLNKTNSSGLSPGACSLTYKGHTNQKNFVGLSVLDGYIACGSETNEVYSYYKSLPMPMTSYKFGSVDPISGNEYFDDNGQFVSSVCWRKKSNMLVAANSTGNMKLLKLV
- binding [2]: binds
- binding [3]: binds
- binding [4]: binds

Other lines, results leading:

- binding [1]: binds
B3: SPA2, Q9T014 1-1036 (protein)
chain: MMDEGSVGDVSRIDEADVAHLQFKNSEQSFKPENIEVREVKEVQVQREAGSPDCSYGVIADFLDGKNGGDHVELIGNEPCSSRQNTNDEGDVVEELTVKTCEGSSMAIVGRPSSRARLEMNRSQFLHRFPLDGDLPGSSSMSKKVIDRGTVSILRNAGKMSLPETSNGQLAIIAVNGEANEHLTNVERNPVPVEALSHEGIKTKMLSQSGFSQFFVRKTLKGKGVTFRGPPNNRSKARNMDQQTVASSGSALVIANTSAKISSSIPLAAYDGLPCLPSNTSKPSSCANPSDTHRGCGGEGLSLREWLKSERQEVNKAECMYIFRQIVDHVDCSHSQGVVLCDLRPSSFKIFKENAVKYVVSGSQRESFDSNMNKETLSQLENPLVRRRLGDTSSLSIPAKKQKSSGPSSRQWPMFQRAGGVNIQTENNDGAIQEFHFRSSQPHCSTVACPFTSVSEQLEEKWYASPEELRGDMRSASSNIYSLGILLYELLSQFQCERAREAAMSDIRHRILPPKFLSENPKEAGFCLWLLHPESSCRPSTRDILQSEVVNGIPDLYAEGLSLSIEQEDTESELLQHFLFLSQEKRQKHAGNLMEEIASVEADIEEIVKRRCAIGPPSLEEASSSSPASSVPEMRLIRNINQLESAYFAARIDAHLPEARYRLRPDRDLLRNSDNTVAEVENSETWSSDDRVGAFFDGLCKYARYSKFETRGVLRTSELNNTSNVICSLGFDRDEDYFATAGVSKKIKIYEFNSLFNESVDIHYPAIEMPNRSKLSGVCWNNYIRNYLASSDYDGIVKLWDVTTGQAISHFIEHEKRAWSVDFSEACPTKLASGSDDCSVKLWNINERNCLGTIRNIANVCCVQFSPQSSHLLAFGSSDFRTYCYDLRNLRTPWCILSGHNKAVSYAKFLDNETLVTASTDNTLKLWDLKKTTHGGLSTNACSLTFGGHTNEKNFVGLSTSDGYIACGSETNEVYAYHRSLPMPITSYKFGSIDPISGKEIEEDNNLFVSSVCWRKRSNMVVSASSNGSIKVLQLV

- binding [1]: binds
B4: SPA3, Q9LJR3 1-845 (protein)
chain: MEGSSNSNSRGFNTSGVSDRNTEFLPVERLTTRSKPSSHVDEYVRSLFGSTSTHKSGEDDSLGIDPFVRSLEWGDVSLRQWLDKPERSVDVFECLHVFRQIVEIVNAAHSQGIVVHNVRPSCFVMSSFNHVSFIESASCSDSGSDSLEDGPISQKEIGSSRREEAVSKAIAIEEKGVYNKLLERKIEKLEEEKTQPFPMKHILAMETSWYTSPEEDFGSSSTCASDVYRLGVLLFELFCPVPSREEKSRTMSSLRHRVLPPQILLKCPKEASFCLWLLHPEPTCRPSMSDLLQSEFITEPRDNLEEREAAIELRDRIEEQESLLEFLLLIQQRKQESAYRLQDTVSLLSSDIEQVVKRQLILKKRGSSLSDFSKDDHQYTSGQPLMSFQANEEPSAFLASRKRVRQGILALENGVEVDEESQGSTLLESSRLMRNFKKLESVYFLTRRRQMKAAASGKSLTRHSPLSSENGRGSMIVSEKSSVSNPVAPKAFFNNDSRQGGWIDPFLEGLCRYLSFSQLRVKADLKQGDLLNSSNLVCALAFDREGELFATAGVNKKIKIFECNSIVNDNRDIHYPVVELAGRSKLSSLCWNSYIKSQIASSNFDGVVQIWDVARSQLVTEMKEHKKRVWSIDISSADPTLLASGSDDGTVKLWSINQGVSIGTIKTKANVCCVQFPSDSGRSLAFGSADHKVYYYDLRNPKIPLCTMIGHSKTVSYVKFVDSSTLVSSSTDNTLKLWDLSMSASGINESPLHSFTGHTNLKNFVGLSVSDGYIATGSETNEVFVYHKAFPMPVMSYMFNNTDSMSGLEVDDASQFISSICWRGQSSTLVAANSNGNIKILEMMT
